Percent effect of library compounds

Source: ChEMBL document CHEMBL3988442, “University of Dundee, Small-Polar-MMV Screening Library” (2021).

Mtb glucose medium: 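Whole-cell growth test on Mycobacterium tuberculosis, read after 3 days in glucose-containing 7H9 medium; the read-out is not stated. Concentration: 50 µM. Higher reads as more growth inhibition (inferred: compounds with an IC50 in retests scored well above the rest). About 69,000 compounds were tested under these conditions; 1.1% (about 760) showed 50% or more at least once.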
Mtb cholesterol medium: 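Phenotypic screen: M. tuberculosis growth, cholesterol and DPPC medium, 4 days; the read-out is not stated. Compounds at 50 µM. Direction is inferred from retests: higher values go with more growth inhibition. Of about 69,000 compounds tested this way, about 370 (0.54%) reached 50% or more in at least one test.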

Each number is a percent effect as filed. The controls that fix the scale are not given in the record; negative values are as filed. Compounds were drawn at random from those tested, without regard to their results. Two or more numbers in one place are separate tests of the same structure; such repeats can differ widely.

compound: Cc1cc(CN2CCC(CNC(=O)c3nccc4ccccc34)C2)[nH]n1 (stereo not drawn)
Mtb glucose medium: 26.23
Mtb cholesterol medium: 0.93

compound: CC(C)c1ncc(S(C)(=O)=O)c(C2CCCNC2)n1 (stereo not drawn)
Mtb glucose medium: -2.187
Mtb cholesterol medium: -10.4

compound: [H][C@@]12CN(C(=O)[C@H]3CCCO3)C[C@]1([H])C(=O)N(CC(C)C)C2
Mtb glucose medium: -17.17
Mtb cholesterol medium: 3.209

compound: CC1CN(CC(=O)NC(C2CC2)C2CC2)CCN1Cc1nccn1C (stereo not drawn)
Mtb glucose medium: -24.3
Mtb cholesterol medium: -12.81

compound: O=C(CC(F)(F)F)NCC(O)c1ccc2ccccc2c1 (stereo not drawn)
Mtb glucose medium: 6.019
Mtb cholesterol medium: 12.37

compound: Cc1cc(C(=O)N2C[C@@H](C(=O)O)[C@H](c3ccccc3C)C2)c(C)o1
Mtb glucose medium: -26.43
Mtb cholesterol medium: -22.89

compound: NC(=O)COc1ccc(CNCc2ccc(Cl)c(F)c2)cc1
Mtb glucose medium: -13.76
Mtb cholesterol medium: -4.553

compound: CC(O)CNCc1c(C(C)C)nn(C)c1N1CCOCC1 (stereo not drawn)
Mtb glucose medium: -13.01
Mtb cholesterol medium: -6.819

compound: COc1ccc(OCc2cc(C(=O)N3CCN[C@H](C)C3)n[nH]2)c(Cl)c1
Mtb glucose medium: -20.08
Mtb cholesterol medium: 0.9874

compound: Cc1nn(C)c(N2CCOCC2)c1CNC(c1ccccc1)C1CC1 (stereo not drawn)
Mtb glucose medium: 1.988
Mtb cholesterol medium: -17.85

compound: CN1C(=O)CC(c2ccccc2)C12CCN(C(=O)c1ccc[nH]1)CC2 (stereo not drawn)
Mtb glucose medium: -17.79 and -1.47
Mtb cholesterol medium: 20.33

compound: Cc1ccc(CN2CC3(CCN(S(=O)(=O)c4ccccc4)C3)C2)o1
Mtb glucose medium: 19.59
Mtb cholesterol medium: 7.493

compound: COc1ccc2cnn(CC(=O)NC3CCCCC3)c(=O)c2c1OC
Mtb glucose medium: 13.83 and 3.676
Mtb cholesterol medium: 3.544

compound: O=C(O)C(F)(F)F.O=S(=O)(C1CC1)N1CCC2(CN(c3ccccn3)C2)C1
Mtb glucose medium: -11.88 and -3.276
Mtb cholesterol medium: -4.917

compound: Cc1cc2nc(SCC(=O)N3CCCC3)n(-c3ccccc3)c(=O)c2[nH]1
Mtb glucose medium: -5.749 and 3.952
Mtb cholesterol medium: -24.06

compound: Fc1ccc(COCC2CCN(Cc3ccccn3)CC2)cc1.O=C(O)C(=O)O
Mtb glucose medium: 21.98
Mtb cholesterol medium: 13.53

compound: Cc1ccsc1[C@@H]1CCN(C(=O)c2cc3ccccc3[nH]2)C[C@H]1O
Mtb glucose medium: -1.749 and 0.1468
Mtb cholesterol medium: -2.609

compound: O=C(CC1CC1)NCc1cn2c(n1)CN(C(=O)C1CCOCC1)CC2
Mtb glucose medium: 14.85
Mtb cholesterol medium: -30.3

compound: O=C(O)C(F)(F)F.[H][C@@]12COC[C@]1(CNC(=O)c1ccco1)CN(Cc1cnn(C)c1)C2
Mtb glucose medium: 13.16
Mtb cholesterol medium: -1.066 and -9.11

compound: COc1ccc(CCC(=O)N2CCNCC2C(=O)N2CCOCC2)cc1 (stereo not drawn)
Mtb glucose medium: 13.92 and 5.219
Mtb cholesterol medium: -1.59

compound: Cl.Fc1cccc(F)c1Cn1c(C2CCNCC2)cc2cccnc21
Mtb glucose medium: -9.462
Mtb cholesterol medium: 13.16 and -12.05

compound: Cc1cccc(CS(=O)(=O)c2nnc([C@@H](N)Cc3ccccc3)o2)c1.Cl
Mtb glucose medium: -11.62
Mtb cholesterol medium: -15.16

compound: Cc1nn(C)c2c(NCc3ccc(F)cc3)nc(C3CC3)nc12
Mtb glucose medium: 44.32
Mtb cholesterol medium: 10.27

compound: Cc1nc(NC(=O)CNC(=O)c2c(F)cccc2Cl)n[nH]1
Mtb glucose medium: 25.84 and -4.727
Mtb cholesterol medium: 2.259

compound: CCCc1nnsc1C(=O)N1CCN(CC(O)c2ccco2)CC1.Cl (stereo not drawn)
Mtb glucose medium: -4.934 and -6.667
Mtb cholesterol medium: -5.749

compound: Cc1c(C)n(Cc2ccccn2)c2nc3c(c(N)c12)CCCCCC3
Mtb glucose medium: -9.199
Mtb cholesterol medium: 9.793

compound: Cc1ccc2c(c1)CCC2NCc1c(C)nn(CCO)c1C.Cl (stereo not drawn)
Mtb glucose medium: -13.43
Mtb cholesterol medium: 8.066

compound: Cc1cccc(OC2CCN(C(=O)c3ccc4c(c3)OCO4)CC2)n1
Mtb glucose medium: 25.69
Mtb cholesterol medium: 21.09

compound: Cc1cccc2c1cnn2CCCNC(=O)c1cnn(C)c1
Mtb glucose medium: -9.854
Mtb cholesterol medium: -1.668

compound: CS(=O)(=O)c1ccc(NC(=O)CSC(F)(F)F)cn1
Mtb glucose medium: -38.74
Mtb cholesterol medium: -40.6

compound: Cc1cccc(CCC(=O)NCC2CCCN2c2cccnn2)c1 (stereo not drawn)
Mtb glucose medium: -19.72
Mtb cholesterol medium: -8.661 and -7.396

compound: O=C1CCN(C(=O)c2ncoc2-c2ccco2)c2ncccc2N1
Mtb glucose medium: -8.86 and 0.3992
Mtb cholesterol medium: 17.93

compound: C[C@@H]1CN(C2CCN(c3ccccc3F)CC2)CC[C@]1(C)O
Mtb glucose medium: 4.019 and 3.43
Mtb cholesterol medium: -10.4

compound: Cc1cnc(CN(C)C2CCN(CC(=O)Nc3nncs3)C2)o1.O=C(O)C(F)(F)F (stereo not drawn)
Mtb glucose medium: -29.32
Mtb cholesterol medium: -12.15

compound: CCN(Cc1cccc(F)c1)c1ccc2nnnn2n1
Mtb glucose medium: 5.78
Mtb cholesterol medium: 1.385

compound: C/C=C(\C)CN1C[C@@H](NC(=O)c2ccc(O)c(Cl)c2)C[C@H]1C(=O)NCC
Mtb glucose medium: 4.369
Mtb cholesterol medium: -16.18

compound: CCc1ncc(CN2CCc3nc4sc(C)cc4c(=O)n3CC2)cn1
Mtb glucose medium: -4.874
Mtb cholesterol medium: -16.08

compound: O=C(Nc1ccccc1OC1CCOC1)c1ccon1 (stereo not drawn)
Mtb glucose medium: -15.37
Mtb cholesterol medium: -14.43

compound: CCOc1ccccc1Oc1ccc(CN)cn1
Mtb glucose medium: -12.02 and 10.86
Mtb cholesterol medium: -1.949

compound: COc1ncc(NC(=O)Nc2cc(C)ccc2OC)cn1
Mtb glucose medium: -14.85
Mtb cholesterol medium: -5.435

compound: Cc1nc(-c2ccc(CC(=O)N3CCNC(=O)C3)cc2)cs1
Mtb glucose medium: -12.14
Mtb cholesterol medium: -16.6

compound: CNS(=O)(=O)CC(=O)N1CC2(CCCC2)c2c(F)cccc21
Mtb glucose medium: 14.73
Mtb cholesterol medium: -1.185

compound: O=C(NCCn1ccnc1)c1ccn(-c2ccc(F)cc2)n1
Mtb glucose medium: -7.337
Mtb cholesterol medium: -9.786

compound: COc1cc(CNCc2ccc(NC(=O)NC(C)C)cc2)cc(OC)c1
Mtb glucose medium: 13.51
Mtb cholesterol medium: 0.8272

For reference, 3 entries once more:

compound,Mtb glucose medium,Mtb cholesterol medium
CCOc1ccccc1Oc1ccc(CN)cn1,-12.02 and 10.86,-1.949
O=C(NCCn1ccnc1)c1ccn(-c2ccc(F)cc2)n1,-7.337,-9.786
Cc1cc2nc(SCC(=O)N3CCCC3)n(-c3ccccc3)c(=O)c2[nH]1,-5.749 and 3.952,-24.06